In publication PMC7819943, “Rice protein-binding microarrays: a tool to detect cis-acting elements near promoter regions in rice”:
Some of the results follow.

These sequences were tested against T1, OsSMF1 (Oryza sativa, UniProt Q6ZLB0 1-436) (assay: protein-binding microarray (RPBM); PBS, 2% BSA, 51.3 ng/ul salmon testes DNA, 50 uM zinc acetate, 200 nM TF, 25 C, 1 h; high values mean tight binding). Settings: protein: recombinant; tags: N-terminal polyhistidine and DsRed monomer fusion (pET32a); chain copies: 2; label: CyDye5-dUTP incorporated in the synthesized complementary strand; 3' TTTTT single-stranded linker to array surface; dsDNA, one strand shown.
T1 sequence: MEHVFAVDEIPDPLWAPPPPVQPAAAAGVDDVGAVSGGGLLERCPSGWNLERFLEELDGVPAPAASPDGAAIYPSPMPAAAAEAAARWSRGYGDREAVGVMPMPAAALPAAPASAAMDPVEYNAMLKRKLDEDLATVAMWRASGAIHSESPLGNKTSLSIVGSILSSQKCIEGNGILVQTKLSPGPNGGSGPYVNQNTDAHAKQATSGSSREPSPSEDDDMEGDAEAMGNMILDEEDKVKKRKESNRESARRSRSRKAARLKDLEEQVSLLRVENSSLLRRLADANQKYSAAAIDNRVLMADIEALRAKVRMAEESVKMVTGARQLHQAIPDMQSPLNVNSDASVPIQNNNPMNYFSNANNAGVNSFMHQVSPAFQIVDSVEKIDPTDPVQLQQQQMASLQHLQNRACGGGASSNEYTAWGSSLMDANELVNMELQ
Summary of the method: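 Per-feature fluorescence intensity (arbitrary units), read on an Axon 4000B scanner, is the binding signal. Transcription factors carrying an N-terminal polyhistidine tag and DsRed fusion were expressed in E. coli BL21-CodonPlus and purified on Ni–NTA. A custom Agilent array, made double-stranded by primer extension with Cy5-dUTP and blocked with 2% BSA, was incubated with 200 nM protein in PBS, 2% BSA, salmon testes DNA and 50 µM zinc acetate at 25 °C for 1 h and then washed.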
“CACTTTTATGACATTTTCAACCATACTATTTTCCTTAAAGCGGAGTCACCTAGTGCAG” was tested, and the binding signal was 39800 fluorescence intensity (a.u.). With “CTGGTGGAATGATGCTGTTATACTGTCACCACTCATCGATCGGAGTCACCTAGTGCAG” the binding signal was 5130 fluorescence intensity (a.u.). “GCGGCGGTGGGGATGGGGATAGGGCGGCGGCGGCGGATGGCGGAGTCACCTAGTGCAG” was tested, and the binding signal was 4780 fluorescence intensity (a.u.). In the case of “GTATCAAGTGCCAATTTGTCAAATTTGAACGCAGCTAGAGCGGAGTCACCTAGTGCAG”, the binding signal was 23600 fluorescence intensity (a.u.). For “ATTGGTTAACCAGGTTGCAAAATCATAATGAGATTTGGATCGGAGTCACCTAGTGCAG”, the binding signal was 3200 fluorescence intensity (a.u.). In the case of “CCCCATGTAATGGTGTCATGGCCAGCACTATTAGCTGTAACGGAGTCACCTAGTGCAG”, the binding signal was 6240 fluorescence intensity (a.u.). In the case of “ATCTGTCAGTGCCACATCACCACCACACAACCGCAAAGAACGGAGTCACCTAGTGCAG”, the binding signal was 4660 fluorescence intensity (a.u.). With “TAAAGAATAAGTAAATCATCATCGCTGATGTGTTGGCCCTCGGAGTCACCTAGTGCAG” the binding signal was 4880 fluorescence intensity (a.u.). With “AAAATGAGATAGGTCTTTCATATCAAAGCTGATGTGGCAACGGAGTCACCTAGTGCAG” the binding signal was 17900 fluorescence intensity (a.u.). With “TCAATTCCCACGGCCGTACTACTACGTGTCATCGCAATCTCGGAGTCACCTAGTGCAG” the binding signal was 7520 fluorescence intensity (a.u.). “TTCGGCGCAAATTTCTAATCATGATGTAATATAATTAGCTCGGAGTCACCTAGTGCAG” was tested, and the binding signal was 3270 fluorescence intensity (a.u.). With “CCCGTTTCACTGTGTGTGTGTGTGTGACGTTAACACGCTACGGAGTCACCTAGTGCAG” the binding signal was 4400 fluorescence intensity (a.u.). For “TGTTTCGGCCTGTTAGCCTACAACGACGTGGGCTCGCGACCGGAGTCACCTAGTGCAG”, the binding signal was 3590 fluorescence intensity (a.u.). For “CAAGTCATGTCACCACTGCTTTAGCGCCACCGACGTGGTTCGGAGTCACCTAGTGCAG”, the binding signal was 4520 fluorescence intensity (a.u.). With “ATCAGCAAGAATGCGAGGGAGACGGCGGAGAGCTCGGGAACGGAGTCACCTAGTGCAG” the binding signal was 43000 fluorescence intensity (a.u.). In the case of “GGCACCGTAATAAACCCAACGTCCTAGCTGGAACAAATTTCGGAGTCACCTAGTGCAG”, the binding signal was 4140 fluorescence intensity (a.u.). With “TTTGTTATAATTTTAATTTACACGTTGCAACGCACGGATACGGAGTCACCTAGTGCAG” the binding signal was 5780 fluorescence intensity (a.u.). In the case of “GCATGTCATGCTAAGACATATGACATACCACCAATCCTTGCGGAGTCACCTAGTGCAG”, the binding signal was 3900 fluorescence intensity (a.u.). For “TAGTCTTTTCCATGTCATGTGATCATGTGTGGAGTTGATTCGGAGTCACCTAGTGCAG”, the binding signal was 5820 fluorescence intensity (a.u.). “CACTCAAAATTGTCACGGTCTCAACTCCCTGAGTATCATGCGGAGTCACCTAGTGCAG” was tested, and the binding signal was 3340 fluorescence intensity (a.u.). “CTATTTGTGATTTAGCGGAACGTGCTACCGGAACTCCCATCGGAGTCACCTAGTGCAG” was tested, and the binding signal was 22400 fluorescence intensity (a.u.). With “CCCGTGCGGCGCGCACACGTCACTCTACCTAGCTTACACCCGGAGTCACCTAGTGCAG” the binding signal was 16400 fluorescence intensity (a.u.). For “GAGGGAGAGAGAGACAGGAGAGGAGAGGAGAGAGCACGATCGGAGTCACCTAGTGCAG”, the binding signal was 3460 fluorescence intensity (a.u.).
